From PubChem BioAssay AID328 (DTP/NCI, 2004)
The list does not hold the whole screen: it is rich in T/C values a quarter to a half above the control, in often repeated tests (any T/C) and in doses without a T/C. Other doses and runs of a compound stand elsewhere. T/C is the treated group as % of the vehicle group. Some doses have a count of surviving animals in place of a T/C: the source holds a T/C of zero for them, seemingly a mark for toxic or unscored doses. Some doses without a T/C left all or most animals alive at the check, yet need not have been tolerated: survival well below the control is almost never listed, so the zero probably covers shortened survival too. Survivors were counted at the toxicity check, usually on the fifth day, unless a day is given; later deaths do not show. Schedule codes are those of the source, read here as Q, the interval in days (D) or hours (H), X, the number of doses. For survival time, this PubChem deposit counts one and a half times the control or more as active, and values a quarter to a half above the control carry no call in these data; other NCI protocols may use other cut-offs.

Tested on: BDF1 mice, P388 leukemia ip, median survival T/C
Assay: NCI In Vivo Anticancer Drug Screen. Data for tumor model P388 Leukemia (intraperitoneal) in B6D2F1 (BDF1) mice
Details: T/C endpoint: median survival time, higher T/C = longer survival
How it was run: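 Vehicle-dosed animals serve as the reference; survival of compound-dosed, tumour-implanted mice is divided by it.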

[1] = dose: 200.0 mg/kg/injection, schedule: Q01DX009 (ip), vehicle: Klucel (hydroxypropylcellulose) (HPC)

COc1ccc(OCC(O)CN2CCN(c3ccc(Cl)cc3)CC2)cc1 (centres undefined)
survivor count (dose: 50.0 mg/kg/injection, schedule: Q01DX009 (ip), vehicle: Klucel (hydroxypropylcellulose) (HPC)): 6 of 6
survivor count (dose: 100.0 mg/kg/injection, schedule: Q01DX009 (ip), vehicle: Klucel (hydroxypropylcellulose) (HPC)): 6 of 6
survivor count [1]: 6 of 6

O=C(/C=C/c1cccc(Cl)c1)c1ccccc1
T/C (dose: 150.0 mg/kg/injection, schedule: Q01DX009 (ip), vehicle: Klucel (hydroxypropylcellulose) (HPC)): 126 % of control
T/C [1]: 126 % of control
survivor count (dose: 300.0 mg/kg/injection, schedule: Q01DX009 (ip), vehicle: Klucel (hydroxypropylcellulose) (HPC)): 5 of 6

C=CC(=O)O
survivor count (dose: 3.3 mg/kg/injection, schedule: Q01DX001 (ip), vehicle: Klucel (hydroxypropylcellulose) (HPC)): 3 of 6
survivor count (dose: 6.6 mg/kg/injection, schedule: Q01DX001 (ip), vehicle: Klucel (hydroxypropylcellulose) (HPC)): 1 of 6
survivor count (dose: 10.0 mg/kg/injection, schedule: Q04DX003 (ip), vehicle: Klucel (hydroxypropylcellulose) (HPC)): 3 of 6
survivor count (dose: 12.0 mg/kg/injection, schedule: Q01DX009 (ip), vehicle: saline): 1 of 6
survivor count (dose: 15.0 mg/kg/injection, schedule: Q04DX003 (ip), vehicle: Klucel (hydroxypropylcellulose) (HPC)): 2 of 6

N=C(N)SC(c1ccccc1)c1ccccc1
survivor count (dose: 400.0 mg/kg/injection, schedule: Q01DX001 (ip), vehicle: Klucel (hydroxypropylcellulose) (HPC)): 0 of 6

CCC(CO)NC(=O)/C=C/c1ccc(Cl)cc1 (centres undefined)
survivor count (dose: 400.0 mg/kg/injection, schedule: Q01DX009 (ip), vehicle: saline with Tween-80): 4 of 6

c1cnc2sccc2c1
survivor count (dose: 400.0 mg/kg/injection, schedule: Q04DX003 (ip), vehicle: saline with Tween-80): 0 of 6
